Results are given in words; binding and its absence hold for the method and conditions named. In cells and extracts the contact can be indirect. Some entries that bind do so weakly or less than the wild type.
Legend:
[1] = target: T1, BORIS (Brother Of the Regulator of Imprinting Sites; CTCFL) (human (endogenous in K562, OVCAR8 and human testis)) (UniProt Q8NI51); test: co-IP; K562 lysates (1.5 mg total protein; RIPA buffer with 500 mM NaCl) immunoprecipitated with anti-BORIS or anti-CTCF monoclonal antibodies or mouse IgG overnight at 4 °C, with and without ethidium bromide; precipitates probed with CTCF antibodies
T1 sequence: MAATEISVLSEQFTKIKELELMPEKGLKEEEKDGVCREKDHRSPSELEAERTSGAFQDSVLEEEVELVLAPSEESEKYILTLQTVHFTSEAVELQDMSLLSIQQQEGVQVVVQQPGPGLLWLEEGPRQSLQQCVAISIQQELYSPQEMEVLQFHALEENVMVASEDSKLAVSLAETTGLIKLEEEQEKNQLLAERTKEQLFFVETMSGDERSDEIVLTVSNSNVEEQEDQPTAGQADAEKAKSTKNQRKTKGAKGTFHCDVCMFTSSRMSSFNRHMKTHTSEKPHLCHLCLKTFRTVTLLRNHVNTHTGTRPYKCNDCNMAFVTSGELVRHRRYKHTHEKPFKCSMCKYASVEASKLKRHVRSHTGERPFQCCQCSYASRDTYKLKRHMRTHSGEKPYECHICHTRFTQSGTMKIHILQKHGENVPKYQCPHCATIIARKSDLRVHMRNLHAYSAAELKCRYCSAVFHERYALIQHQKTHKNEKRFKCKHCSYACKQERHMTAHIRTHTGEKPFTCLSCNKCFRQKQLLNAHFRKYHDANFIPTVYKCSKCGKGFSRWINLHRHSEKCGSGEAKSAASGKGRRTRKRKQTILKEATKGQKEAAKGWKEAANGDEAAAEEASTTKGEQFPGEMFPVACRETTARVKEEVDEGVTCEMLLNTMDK

[2] = target: T2, BORIS, exogenous, stably expressed in MCF7 cells (MCF7+BORIS) (UniProt Q8NI51); test: proximity ligation; in situ proximity ligation assay (ISPLA, Duolink) on fixed cells or tissue with mouse monoclonal anti-BORIS and rabbit anti-CTCF (D31H2); OVCAR8 cells, human testis tissue, MCF7+BORIS and MCF7+EV cells
T2 sequence: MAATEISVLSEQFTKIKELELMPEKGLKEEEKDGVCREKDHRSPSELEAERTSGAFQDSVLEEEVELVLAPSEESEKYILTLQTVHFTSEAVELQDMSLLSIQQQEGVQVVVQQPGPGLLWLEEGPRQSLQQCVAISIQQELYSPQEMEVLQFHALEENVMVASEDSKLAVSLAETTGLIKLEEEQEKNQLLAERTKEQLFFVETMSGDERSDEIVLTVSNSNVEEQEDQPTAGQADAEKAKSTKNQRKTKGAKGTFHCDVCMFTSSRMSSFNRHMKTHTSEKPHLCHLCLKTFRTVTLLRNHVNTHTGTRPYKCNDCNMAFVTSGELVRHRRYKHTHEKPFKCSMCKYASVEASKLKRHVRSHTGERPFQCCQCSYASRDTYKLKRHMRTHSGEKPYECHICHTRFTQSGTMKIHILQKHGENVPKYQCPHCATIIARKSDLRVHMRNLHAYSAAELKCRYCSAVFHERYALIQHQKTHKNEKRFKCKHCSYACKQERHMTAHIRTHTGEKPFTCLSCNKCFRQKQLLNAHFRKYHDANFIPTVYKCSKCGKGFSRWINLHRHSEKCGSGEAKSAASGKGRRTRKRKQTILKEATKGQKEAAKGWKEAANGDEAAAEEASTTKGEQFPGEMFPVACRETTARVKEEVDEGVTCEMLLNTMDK

[3] = target: T1, BORIS (Brother Of the Regulator of Imprinting Sites; CTCFL) (human (endogenous in K562, OVCAR8 and human testis)); test: as above

- binding [1]: binds
- binding [2]: binds
- binding [3]: binds
B1: CTCF (CCCTC-binding factor) (protein, UniProt P49711 1-727)
chain: MEGDAVEAIVEESETFIKGKERKTYQRRREGGQEEDACHLPQNQTDGGEVVQDVNSSVQMVMMEQLDPTLLQMKTEVMEGTVAPEAEAAVDDTQIITLQVVNMEEQPINIGELQLVQVPVPVTVPVATTSVEELQGAYENEVSKEGLAESEPMICHTLPLPEGFQVVKVGANGEVETLEQGELPPQEDPSWQKDPDYQPPAKKTKKTKKSKLRYTEEGKDVDVSVYDFEEEQQEGLLSEVNAEKVVGNMKPPKPTKIKKKGVKKTFQCELCSYTCPRRSNLDRHMKSHTDERPHKCHLCGRAFRTVTLLRNHLNTHTGTRPHKCPDCDMAFVTSGELVRHRRYKHTHEKPFKCSMCDYASVEVSKLKRHIRSHTGERPFQCSLCSYASRDTYKLKRHMRTHSGEKPYECYICHARFTQSGTMKMHILQKHTENVAKFHCPHCDTVIARKSDLGVHLRKQHSYIEQGKKCRYCDAVFHERYALIQHQKSHKNEKRFKCDQCDYACRQERHMIMHKRTHTGEKPYACSHCDKTFRQKQLLDMHFKRYHDPNFVPAAFVCSKCGKTFTRRNTMARHADNCAGPDGVEGENGGETKKSKRGRKRKMRSKKEDSSDSENAEPDLDDNEDEEEPAVEIEPEPEPQPVTPAPPPAKKRRGRPPGRTNQPKQNQPTAIIQVEDQNTGAIENIIVEVKKEPDAEPAEGEEEEAQPAATDAPNGDLTPEMILSMMDR

From publication PMC4562119
